Laboratory results reported in article PMC4741190, “Crystal structure of the flavoenzyme PA4991 from Pseudomonas aeruginosa” (Acta Crystallographica. Section F, Structural Biology …, 2016).
These are yes or no findings as the source states them, for the method shown.

Legend:
[1] = biological target: PA4991 from Pseudomonas aeruginosa (Pseudomonas aeruginosa PAO1) (UniProt Q9HUH4); assay: SEC; analytical size-exclusion chromatography, Superdex 200 10/300, 25 mM Tris-HCl pH 8.0, 150 mM NaCl; calibrated with protein standards; both purified
[2] = biological target: PA4991 from Pseudomonas aeruginosa (Pseudomonas aeruginosa PAO1) (UniProt Q9HUH4); assay: crystal structure; X-ray, 2.4 A, space group P21, one monomer in the asymmetric unit; crystal packing analysed with PISA; both purified

- binding [1]: no binding
- binding [2]: no binding
B1: PA4991 from Pseudomonas aeruginosa (enzyme, UniProt Q9HUH4 1-391)
chain: MPQALSTDILIVGGGIAGLWLNARLRRAGYATVLVESASLGGGQSVKSQGIIHGGAKYALHGALTGASEAIADMPRRWRACLGSDGELDLRGVRLLSEAHYLWSPGGLAGSLTSFFASKAVRSRVEQAKGEDLPPALRDKGFKGKAYRLTEIVFDVPDLIRRLAELAGDSLLAGERIEPLREGRELAGLCVDGREIRAQRVVLSAGAGNEALLRELGLEQPAMQRRPLHMVMVKAATLKPLYAHCLGAGPKPRITVTTHPTRDGQSVWYLGGDIAETDGVARDEAAQIAEARRELAKLLPWIDLGQAQWATLRVDRAEPAQSNLLRPDNAFLAEQGRLLVGWPTKLALAPDFADRVCARLEEDGIRPSEHAALPQLPRPPLAEPAWEVAFA
